Source: paper PMC4942255, “MutSα maintains the mismatch repair capability by inhibiting PCNA unloading”
These are yes or no findings as the source states them, for the method shown. Some binding calls cover weakened binding; strength is not graded here. Tags and fused reporters may be left off the sequences shown.

Chains of the proteins cited; added tags and fusions are not shown.
UniProt A0A1B4WRB1: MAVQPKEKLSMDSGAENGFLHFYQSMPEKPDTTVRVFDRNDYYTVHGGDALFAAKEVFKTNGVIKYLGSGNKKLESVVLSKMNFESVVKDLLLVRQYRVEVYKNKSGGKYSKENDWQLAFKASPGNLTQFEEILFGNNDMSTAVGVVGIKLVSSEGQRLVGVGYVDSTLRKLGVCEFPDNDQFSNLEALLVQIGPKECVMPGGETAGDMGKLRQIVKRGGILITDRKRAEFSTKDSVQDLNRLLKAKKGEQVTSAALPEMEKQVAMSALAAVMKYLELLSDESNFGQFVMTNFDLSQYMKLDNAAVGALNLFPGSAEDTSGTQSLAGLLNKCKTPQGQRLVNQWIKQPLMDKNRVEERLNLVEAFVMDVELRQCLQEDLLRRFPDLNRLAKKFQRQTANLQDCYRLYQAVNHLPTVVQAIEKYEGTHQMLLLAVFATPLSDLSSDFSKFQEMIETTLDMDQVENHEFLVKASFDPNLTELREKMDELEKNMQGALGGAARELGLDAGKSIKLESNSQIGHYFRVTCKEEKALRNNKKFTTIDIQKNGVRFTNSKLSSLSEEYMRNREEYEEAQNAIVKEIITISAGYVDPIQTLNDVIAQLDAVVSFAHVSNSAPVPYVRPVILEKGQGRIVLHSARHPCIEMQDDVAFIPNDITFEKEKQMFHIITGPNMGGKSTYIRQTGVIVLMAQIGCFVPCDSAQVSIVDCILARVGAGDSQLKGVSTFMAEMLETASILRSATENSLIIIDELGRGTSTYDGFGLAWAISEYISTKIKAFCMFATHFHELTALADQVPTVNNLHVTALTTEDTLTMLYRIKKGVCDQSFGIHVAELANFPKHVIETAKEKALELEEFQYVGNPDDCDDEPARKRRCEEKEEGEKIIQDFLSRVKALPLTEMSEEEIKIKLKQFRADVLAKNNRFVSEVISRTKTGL

Assays:
[1] = target: T1, Xenopus laevis Msh6 N-terminal deletion mutant (Δ1–323) with C-terminal FLAG tag (Xenopus laevis); experiment: co-purification (FLAG-M2 affinity, MonoQ, Superdex 200); xMsh2 and xMsh6-FLAG co-expressed in Sf9 cells; cleared lysate in buffer S (25 mM Tris-HCl pH 7.4, 250 mM NaCl) passed over DEAE Sepharose and FLAG-M2 agarose, eluted with FLAG peptide, then MonoQ and Superdex 200; fractions of ~2.5 x 10^5 pooled
T1 sequence: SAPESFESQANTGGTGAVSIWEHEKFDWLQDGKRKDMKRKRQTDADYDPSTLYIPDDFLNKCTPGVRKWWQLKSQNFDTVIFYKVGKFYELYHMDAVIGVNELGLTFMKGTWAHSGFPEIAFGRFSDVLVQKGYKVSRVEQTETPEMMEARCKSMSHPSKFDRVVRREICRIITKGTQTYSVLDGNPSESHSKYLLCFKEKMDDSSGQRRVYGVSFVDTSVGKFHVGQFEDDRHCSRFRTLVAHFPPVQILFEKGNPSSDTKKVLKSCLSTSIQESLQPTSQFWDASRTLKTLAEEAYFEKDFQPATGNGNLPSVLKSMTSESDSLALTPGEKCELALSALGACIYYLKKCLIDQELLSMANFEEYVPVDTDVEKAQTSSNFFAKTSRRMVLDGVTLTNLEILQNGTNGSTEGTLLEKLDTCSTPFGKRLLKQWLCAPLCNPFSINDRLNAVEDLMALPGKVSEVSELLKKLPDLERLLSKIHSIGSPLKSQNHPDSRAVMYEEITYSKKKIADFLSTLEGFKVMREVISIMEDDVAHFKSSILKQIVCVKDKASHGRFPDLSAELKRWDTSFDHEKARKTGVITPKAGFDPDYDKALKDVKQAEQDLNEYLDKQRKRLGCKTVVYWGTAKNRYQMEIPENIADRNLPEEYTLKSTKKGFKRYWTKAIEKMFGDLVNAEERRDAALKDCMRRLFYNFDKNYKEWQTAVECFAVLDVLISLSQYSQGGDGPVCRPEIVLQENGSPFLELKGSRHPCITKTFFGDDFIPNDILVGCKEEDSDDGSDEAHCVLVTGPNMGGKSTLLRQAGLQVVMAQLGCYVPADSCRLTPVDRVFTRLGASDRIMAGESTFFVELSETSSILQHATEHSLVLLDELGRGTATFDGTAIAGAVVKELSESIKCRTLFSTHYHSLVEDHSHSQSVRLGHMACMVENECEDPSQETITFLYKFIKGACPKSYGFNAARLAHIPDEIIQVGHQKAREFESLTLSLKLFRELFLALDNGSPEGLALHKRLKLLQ

[2] = target: T2, Xenopus laevis Msh6 with C-terminal FLAG tag, wild type (Xenopus laevis); experiment: as above
T2 sequence: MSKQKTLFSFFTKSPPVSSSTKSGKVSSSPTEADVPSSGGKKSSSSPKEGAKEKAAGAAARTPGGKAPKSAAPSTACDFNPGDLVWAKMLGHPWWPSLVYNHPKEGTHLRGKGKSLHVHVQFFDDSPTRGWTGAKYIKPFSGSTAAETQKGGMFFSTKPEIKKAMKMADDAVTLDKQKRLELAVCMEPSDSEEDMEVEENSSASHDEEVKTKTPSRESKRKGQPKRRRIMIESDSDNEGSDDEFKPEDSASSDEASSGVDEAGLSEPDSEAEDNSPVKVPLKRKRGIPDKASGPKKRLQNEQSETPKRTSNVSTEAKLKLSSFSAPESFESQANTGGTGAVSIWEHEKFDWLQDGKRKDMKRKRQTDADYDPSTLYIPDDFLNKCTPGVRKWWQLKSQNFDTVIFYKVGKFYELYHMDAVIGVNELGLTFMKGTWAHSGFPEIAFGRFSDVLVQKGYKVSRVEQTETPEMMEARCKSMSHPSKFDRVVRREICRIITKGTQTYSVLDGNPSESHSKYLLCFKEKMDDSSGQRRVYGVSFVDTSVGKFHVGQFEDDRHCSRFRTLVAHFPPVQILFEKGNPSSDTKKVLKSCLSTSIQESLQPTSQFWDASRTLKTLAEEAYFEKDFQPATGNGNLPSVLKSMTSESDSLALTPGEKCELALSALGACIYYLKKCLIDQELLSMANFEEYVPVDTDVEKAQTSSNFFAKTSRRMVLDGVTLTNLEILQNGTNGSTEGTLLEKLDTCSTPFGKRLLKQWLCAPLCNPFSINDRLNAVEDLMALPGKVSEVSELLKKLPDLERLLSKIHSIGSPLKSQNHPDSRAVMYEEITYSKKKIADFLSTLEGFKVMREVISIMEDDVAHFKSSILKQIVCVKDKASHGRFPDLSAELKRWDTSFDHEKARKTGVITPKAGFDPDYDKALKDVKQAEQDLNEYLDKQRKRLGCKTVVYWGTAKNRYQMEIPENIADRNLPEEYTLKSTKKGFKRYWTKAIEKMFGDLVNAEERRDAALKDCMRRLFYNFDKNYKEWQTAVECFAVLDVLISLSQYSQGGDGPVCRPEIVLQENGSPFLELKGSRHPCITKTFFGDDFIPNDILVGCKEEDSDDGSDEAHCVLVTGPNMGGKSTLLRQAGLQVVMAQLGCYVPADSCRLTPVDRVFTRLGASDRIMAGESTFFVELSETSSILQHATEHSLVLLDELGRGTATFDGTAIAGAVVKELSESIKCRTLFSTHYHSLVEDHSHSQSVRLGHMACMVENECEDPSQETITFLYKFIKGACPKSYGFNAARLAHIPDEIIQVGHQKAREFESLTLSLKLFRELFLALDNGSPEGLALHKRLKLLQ

binding [1]: binds | binding [2]: binds
Substance: Xenopus laevis Msh2 (from UniProt A0A1B4WRB1 1-932)
